# PubChem BioAssay AID1259314 – Drosophila RNAi Screening Center – 2017
# Test: 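Modifiers of manganese chloride toxicity in fly cells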 (primary screen)
# System: Drosophila S2R+ cells
# Reagents: long dsRNA against Drosophila genes
# Time to read-out: 5 days (4 days knock-down, then 1 day metal exposure)
# Challenge: manganese chloride added to 15 mM for 24 hours
# Read-out: 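Cellular ATP measured by luciferase light, scaled to the plate mean, averaged across replicates and z-scored over plates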
# Reading the numbers: mean ATP z-score: higher = more ATP than the plate average, more viable cells under manganese
# Rule for the call: 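a mean ATP z-score past 1.5 in either direction is called active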
# Calls: active = strong ATP change, up or down; inactive = no strong ATP change
# Shown is a random part of about 3,100 reagents tested. In the full data, 289 (9.3%) got an active call. 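Active includes both higher and lower ATP than plate average; check the z-score sign for direction.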 Not stated in the record: the amount of reagent.
The opening 7 entries, ahead of the listing:
mean ATP z-score,activity call,Target gene,dsRNA
0.211,inactive,mbo,DRSC16123
-0.999,inactive,mbo,DRSC39478
-0.158,inactive,CG11162,DRSC22538
0.156,inactive,CG11162,DRSC39680
0.362,inactive,SK,DRSC17387
-0.147,inactive,SK,DRSC17887
0.145,inactive,SK,DRSC17888

The list itself, repeating the preview:
mean ATP z-score,activity call,Target gene,dsRNA
0.211,inactive,mbo,DRSC16123
-0.999,inactive,mbo,DRSC39478
-0.158,inactive,CG11162,DRSC22538
0.156,inactive,CG11162,DRSC39680
0.362,inactive,SK,DRSC17387
-0.147,inactive,SK,DRSC17887
0.145,inactive,SK,DRSC17888
2.5,active,SK,DRSC27622
-0.165,inactive,SP1173,DRSC11277
-0.142,inactive,Gr89a,DRSC15023
-0.0541,inactive,Gr89a,DRSC39468
0.22,inactive,ppk25,DRSC04973
-0.336,inactive,ppk25,DRSC27513
0.147,inactive,SLC22A,DRSC11826
-0.641,inactive,SLC22A,DRSC11827
-0.899,inactive,Tollo,DRSC11305
0.248,inactive,Tollo,DRSC39718
0.665,inactive,CG16723,DRSC15138
1.59,active,CG16723,DRSC28144
-1.89,active,Coq2,DRSC29659
-1.27,inactive,Coq2,DRSC39437
-0.161,inactive,CG33281,DRSC00421
-0.844,inactive,Nmda1,DRSC07479
0.787,inactive,Nmda1,DRSC26357
-0.348,inactive,CG8046,DRSC07059
-0.504,inactive,CG9555,DRSC03264
-1.37,inactive,CG9555,DRSC25330
-0.16,inactive,CG12730,DRSC17885
0.456,inactive,CG12730,DRSC39454
1.63,active,Sec61alpha,DRSC03256
-0.0463,inactive,mthl9,DRSC08506
0.814,inactive,mthl9,DRSC39784
-0.497,inactive,CG14743,DRSC06479
0.926,inactive,CG14743,DRSC39688
-0.16,inactive,Miro,DRSC15795
-0.645,inactive,Miro,DRSC39610
0.0225,inactive,Or1a,DRSC18689
0.413,inactive,Or1a,DRSC39473
0.211,inactive,Ddr,DRSC02150
0.31,inactive,Ddr,DRSC03229
0.137,inactive,Ddr,DRSC22818
0.418,inactive,VhaAC45,DRSC07058
-0.289,inactive,VhaAC45,DRSC39906
-0.261,inactive,Ptp99A,DRSC14320
0.0646,inactive,Ptp99A,DRSC16803
0.864,inactive,Ptp99A,DRSC22477
-0.272,inactive,Ptp99A,DRSC23033
-0.533,inactive,Ptp99A,DRSC37009
-0.508,inactive,Zdhhc8,DRSC18122
0.906,inactive,Zdhhc8,DRSC39517
-0.564,inactive,Ir94d,DRSC21568
-0.149,inactive,fzo,DRSC16954
0.389,inactive,fzo,DRSC39864
0.298,inactive,klar,DRSC22393
-0.741,inactive,Piezo,DRSC03092
-0.757,inactive,Piezo,DRSC39751
0.852,inactive,CG13893,DRSC08363
1,inactive,CG13893,DRSC39792
-0.727,inactive,SPoCk,DRSC11844
-0.8,inactive,SPoCk,DRSC24007
2.64,active,CG9459,DRSC16496
2.09,active,CG9459,DRSC39459
-0.626,inactive,CG32204,DRSC09574
-1.33,inactive,CG32204,DRSC23663
2.02,active,CG7888,DRSC10926
0.653,inactive,CG7888,DRSC39855
-0.148,inactive,CG8219,DRSC10971
0.812,inactive,CG8219,DRSC24577
0.407,inactive,Fili,DRSC03907
-2.25,active,Fili,DRSC04132
1.17,inactive,Fili,DRSC04445
-0.402,inactive,Mdr65,DRSC11220
1.17,inactive,Drip,DRSC07405
-0.385,inactive,CG33124,DRSC00298
-1.13,inactive,CG14647,DRSC22497
0.193,inactive,CG14647,DRSC39593
1.94,active,Best1,DRSC26475
0.537,inactive,Best1,DRSC39616
-0.306,inactive,Dg,DRSC06718
0.298,inactive,wdp,DRSC28581
0.236,inactive,colt,DRSC00808
0.134,inactive,colt,DRSC29025
-1.01,inactive,MRP,DRSC02942
-0.0509,inactive,MRP,DRSC39503
-0.668,inactive,CG11110,DRSC06037
-1.45,inactive,CG11110,DRSC27355
-0.0304,inactive,ninaA,DRSC00830
0.168,inactive,CG33958,DRSC06472
1.06,inactive,CG33958,DRSC06944
0.00779,inactive,CG33958,DRSC29635
-0.515,inactive,Gr77a,DRSC11446
1.15,inactive,Gr77a,DRSC26808
0.84,inactive,CG1275,DRSC08294
0.0946,inactive,sip3,DRSC29484
-0.826,inactive,sip3,DRSC39765
-0.508,inactive,CG5535,DRSC10514
1.48,inactive,CG5535,DRSC29215
0.201,inactive,ppk16,DRSC02736
0.503,inactive,AdoR,DRSC16556
0.461,inactive,AdoR,DRSC28071
-0.826,inactive,sas,DRSC12631
1.67,active,Tsp42Ep,DRSC06871
-0.49,inactive,Fur2,DRSC19817
1.31,inactive,ppk14,DRSC03238
0.609,inactive,ppk14,DRSC39786
-2.04,active,Nemp,DRSC20206
-1.55,active,Nemp,DRSC26963
0.61,inactive,TkR86C,DRSC16880
-0.896,inactive,Ktl,DRSC14270
-0.258,inactive,CG12438,DRSC02167
